Data as given in PubChem BioAssay AID1347423 (Functional Genomics Laboratory (NCATS/FGL), 2020).
Out of some 52,000 sequences screened, about 210 (0.4%) were called active.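 How the source made its calls: active means gene whose silencing raises cell survival under the drug, median off-target-corrected z-score across its silencing RNAs 2 or more; inactive means the rest.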 This is one part of the list.

test: Resistance to Poly (ADP-Ribose) Polymerase inhibitor: Gene Identification via Genome-wide siRNA Screen; conditions: mouse BRCA2 R2336H ES cells, olaparib, CellTiter-Glo viability; active compounds read high
How it was run: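 Mouse BRCA2 R2336H ES cells were reverse-transfected with siRNA (20 nM final), treated at 48 h with 500 nM olaparib, and read by CellTiter-Glo after 72 h. Scores: MAD-based z per siRNA, median per gene, seed off-target correction.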

Question: With CCUCGAGUUCGGAAACAGATT against Chd8 as the sequence, how does the z-score read?
Answer: inactive: -1.46

Question: Which z-score does the source give for “GGUGUGUGCUAGGACUGAGTT against 4930529M08Rik” here?
Answer: inactive: -0.945

Question: For GCAAACGUAUCAAGAGCAATT against Naca, which z-score is on record?
Answer: inactive: -1.79

Question: For “GGUCAUAGAAUUCAUGUCCTT against E230016K23Rik”, which z-score is on record?
Answer: inactive: 1.02

Question: With GGUAGUUCAGAUCUGAUUUTT against Polydom as the sequence, how does the z-score read?
Answer: inactive: -0.515

Question: With CCAGAAUGUAUCCAGGCCUTT against Siat7d as the sequence, how does the z-score read?
Answer: inactive: 0.667

Question: For GCCAACGCAGCAAAAGCUCTT against D4Wsu53e, which z-score is on record?
Answer: inactive: 0.269

Question: Which z-score does the source give for CGAAUAAAGCUUCAUUGUGTT against Atp5k here?
Answer: inactive: 0.0614

Question: With GCUUCAGUCGAAGUUCCUUTT against Zfp189 as the sequence, how does the z-score read?
Answer: inactive: 0.544

Question: With GGGUGUUGACAUAAAAAAUTT against Nsdhl as the sequence, how does the z-score read?
Answer: inactive: -0.151

Question: Which z-score does the source give for “CGGUCAUUAAUGAAGCCUGTT against E430002G05Rik” here?
Answer: inactive: -1.83

Question: For GCUUGAAGGUAUAAUUUCATT against Cldn12, which z-score is on record?
Answer: inactive: -1.92

Question: Which z-score does the source give for “GGAGGUACUUCCGAUUGAGTT against 1700058C13Rik” here?
Answer: inactive: 0.606

Question: With GGUUGUUCCCGGAAGAAUCTT against Rtn4r as the sequence, how does the z-score read?
Answer: inactive: -1.16

Question: Which z-score does the source give for “CCACUAUCCCACCAAUCACTT against 2210415F13Rik” here?
Answer: inactive: -0.19

Question: For CCACCACUCUAUCAGAGGUTT against Evx1, which z-score is on record?
Answer: inactive: 0.696

Question: For GUACGUCAUGGGUCACUUCTT against Pomc1, which z-score is on record?
Answer: inactive: -0.0856

Question: With GGUUGGGAUACAUUCAACGTT against Mscp as the sequence, how does the z-score read?
Answer: inactive: 0.871

Question: For “GGAAUUUAAAAGUAGCAAGTT against 6430601A21Rik”, which z-score is on record?
Answer: inactive: 1.5

Question: With GGAUGGCGAUAAGAAGAUUTT against C3 as the sequence, how does the z-score read?
Answer: inactive: -0.936

Question: Which z-score does the source give for CGAGCUAUUUACUUUGAUGTT against Gfm here?
Answer: inactive: -0.419

Question: For GGCAGCCCUUUUGCUAAGATT against Neurod1, which z-score is on record?
Answer: inactive: 0.891

Question: For UGCUUUGCAUCUGGCUGUATT against Hs3st3b, which z-score is on record?
Answer: inactive: 0.0196

Question: For GGUAAAGAUAAUUGACAACTT against Isp2, which z-score is on record?
Answer: inactive: -0.399

Question: For GGUGGAGGGUUUCAUCAAUTT against Alg3, which z-score is on record?
Answer: inactive: 0.271

Question: With GGCUUUGCUUUCCUUACUUTT against RbmY1a1 as the sequence, how does the z-score read?
Answer: inactive: 1.02

Question: For GGAUCGAGUUUGGUGUAGATT against Usp10, which z-score is on record?
Answer: inactive: 0.787

Question: Which z-score does the source give for CCCUUACUUAGUCUCCACUTT against Olig1 here?
Answer: inactive: 0.734

Question: Which z-score does the source give for GGCUUGCUAGAUAACAUCATT against Timm44 here?
Answer: inactive: -2.46

Question: For GGAAUUUCACUAACCUUAGTT against Tert, which z-score is on record?
Answer: inactive: -2.65

Question: With GCGAAUAUCCAACCUAUCUTT against Itgb7 as the sequence, how does the z-score read?
Answer: inactive: -0.459

Question: For GGAACUGGCCAAUUACUACTT against Rad52b, which z-score is on record?
Answer: inactive: -0.981

Question: Which z-score does the source give for GCUUCUAUGAUCGUACGGATT against Nid1 here?
Answer: inactive: -0.791

Question: With GGCAUCUGAAUUCCCUUCUTT against Idb2 as the sequence, how does the z-score read?
Answer: inactive: 0.603

Question: With CCCUCAAUGCUGGAAAACCTT against Nol4 as the sequence, how does the z-score read?
Answer: inactive: 0.694

Question: Which z-score does the source give for GGGCGUAGAAACAGCAACUTT against Ushbp1 here?
Answer: inactive: -0.768

Question: With “GCAGCUUUGCUCAGCCCAATT against 1700028O09Rik” as the sequence, how does the z-score read?
Answer: inactive: -0.647

Question: For GGCCACCCUUUCAGAAAUGTT against Fut9, which z-score is on record?
Answer: inactive: 0.762

Question: With GGGACGACUCUUUCUUAUGTT against Ors16 as the sequence, how does the z-score read?
Answer: inactive: 0.303

Question: For “CGGGAACUCACCGAAAAGATT against 4921521N14Rik”, which z-score is on record?
Answer: inactive: 0.566

Question: For GCUGUUUAAAGAUAUGUGGTT against Nfx1, which z-score is on record?
Answer: inactive: 0.852

Question: For GGAGGUGGUACAGUAGCAUTT against Olfm4, which z-score is on record?
Answer: inactive: 1.41

Question: Which z-score does the source give for GCGAACCUACGACUUCUACTT against Chst8 here?
Answer: inactive: -0.189

Question: With “GGAAUUUCAUACAAACUCUTT against A730024A03Rik” as the sequence, how does the z-score read?
Answer: inactive: -1.31

Question: Which z-score does the source give for “GGCAUGAGAUUCUCAAUCCTT against 8430415E04Rik” here?
Answer: inactive: -0.167

Question: With “GGAUUCUGUCUCCAGAUAUTT against 1700040L02Rik” as the sequence, how does the z-score read?
Answer: inactive: 0.243

Question: Which z-score does the source give for CGAAAGUGAUCAAAUAGAATT against Zcchc12 here?
Answer: inactive: -0.722

Question: For GGUGGCUUCAUUUUAGAAGTT against Xpa, which z-score is on record?
Answer: inactive: -0.16

Question: Which z-score does the source give for GGAAAACAAUGCCAAAGGGTT against Evx2 here?
Answer: inactive: -1.13

Question: With “GGCCGUUUUAAGAAAGGCCTT against 5830427D03Rik” as the sequence, how does the z-score read?
Answer: inactive: -0.137

Question: With CCGAAUACGUGAAGACGCATT against Slc25a1 as the sequence, how does the z-score read?
Answer: inactive: 0.487

Question: Which z-score does the source give for GGUCUUGGCACAAUUACAUTT against Actl6a here?
Answer: inactive: -2.05

Question: For “GGGUGCAAGGGCACCAAAATT against 1700049M11Rik”, which z-score is on record?
Answer: inactive: -1.72

Question: Which z-score does the source give for GGUACCAACACAAGUAACATT against Dyrk1a here?
Answer: inactive: 0.447

Question: For “GGCCAUCCUGGGCUAAAUATT against 4833412N02Rik”, which z-score is on record?
Answer: inactive: 1.7

Question: For GGAGAUCUAACUCUGUAUGTT against Hpse, which z-score is on record?
Answer: inactive: 0.757

Question: With GGUGUGUUACUGAUGAUUCTT against Olfr669 as the sequence, how does the z-score read?
Answer: inactive: 1.16

Question: Which z-score does the source give for GGACAGCCUUGUGUCAAAATT against Ramp2 here?
Answer: inactive: 2.08

Question: Which z-score does the source give for GGAAAAGGGCAAGCACAUGTT against Ard1 here?
Answer: inactive: 0.142

Question: For GGUUACCCAUGCAGUUGUUTT against Hspa5, which z-score is on record?
Answer: inactive: -0.353

Question: Which z-score does the source give for GGCUCAGAACCUUCUGAAATT against Exoc7 here?
Answer: inactive: 0.212

Question: With CCAAACCAUAUGGAGAAGGTT against Obfc1 as the sequence, how does the z-score read?
Answer: inactive: 1.16

Question: Which z-score does the source give for GCAGAAGCUAUAUAGCAAGTT against AU041707 here?
Answer: inactive: -0.537

Question: With GGUGUCAUUCACAAAAACUTT against Csnk1g1 as the sequence, how does the z-score read?
Answer: inactive: 0.594

Question: With CCUUGAUCAUUUUAAUUGGTT against Olfr913 as the sequence, how does the z-score read?
Answer: inactive: 0.615

Question: Which z-score does the source give for “GGAAUUGAAACCUGAUGUUTT against 2810036K01Rik” here?
Answer: inactive: -2.32
